This passage reports cell number change and AC50 results from PubChem BioAssay AID2685 (National Center for Advancing Translational Sciences (NCATS), 2010).

For orientation: AC50 means the midpoint of the concentration-response curve, whichever way the signal moves. Low values mean greater potency, high ones weaker potency.

The structures appear in SMILES notation. The list shows a part of the results. These are further read-outs of the screen, such as a control signal, another cell line or another target. No call is given for them. Most of these compounds were active or inconclusive in the main read-out, so they are no random draw. Potencies come from curve fits of mixed quality, noted in brackets.

The nature of this assay: qHTS Assay for Lipid Storage Modulators in Drosophila S3 Cells.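 For cell number change: cells counted by Cell Tracker Red CMTPX staining in the red channel.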 As to conditions: BODIPY lipid droplet fluorescence, 18-24 h; for cell number change: measured here: cell count max response, cells fed with added oleic acid. The gist of the method: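 Drosophila S3 cells got compounds at several concentrations plus oleic acid (400 uM solution). Laser-scanning cytometry with 488 nm excitation read lipid droplets at 500-530 nm and cells at 575-640 nm. Percent activity was relative to 20 uM Triacsin C.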

Setting [1] is: measured here: cell number channel AC50, cells fed with added oleic acid.
The mark [2] stands for this setting: measured here: lipid fluorescence (Fed channel) AC50, cells fed with added oleic acid.

Regarding `CCCn1nc(C(=O)Nc2ccc3c(c2)OCO3)c2ccccc2c1=O`, the cell number change is 37.4%. For the same compound, the AC50 under setting [1] was 32.6 µM [rising, single point]. For the same compound, the AC50 under setting [2] was 6.51 µM [rising, full curve]. Turning to `N#Cc1c(N)nc2c(c1-c1ccncc1)CCCC2`, the cell number change is -14.7%. For `Oc1c(Cl)cc(Cl)cc1/C=C/c1ccc2cccc(O)c2n1`, the AC50 was 0.058 µM [falling, full curve, poor fit] under setting [1] and 0.731 µM [falling, single point] under setting [2]. For the compound `COc1ccc(OC)c(C(c2nnnn2CCC(C)C)N2CCN(C(=O)c3ccco3)CC2)c1` (stereo unspecified), the cell number change is -5.68%. Further, the AC50 under setting [2] is 3.66 µM [rising, single point]. On to `COc1ccc(C(=O)C(Cc2cc(C(C)=O)ccc2OC)N2CCCC2)cc1` (stereo unspecified), for which the cell number change turned out to be 43.9%. For the same compound, the AC50 under setting [2] was 29.1 µM [rising, single point]. Regarding `O=C(Nc1ccc2oc(-c3ccncc3)nc2c1)c1ccc(Br)o1`, the cell number change was found to be 1.28%. Under setting [2], the AC50 was 0.259 µM [rising, partial curve]. Take `CCOC(=O)c1cc(CC)sc1NC(=O)Cc1ccsc1`: the cell number change stood at 38.7%. The AC50 under setting [1] was 16.4 µM [rising, partial curve, poor fit].

As to `CC(C)(C)OC(=O)N1Cc2ccccc2C[C@H]1C(=O)NC1CCCC1`, the cell number change is 17%. Besides, the AC50 under setting [2] is 16.4 µM [rising, partial curve]. Consider `CCc1ccc(NC(=O)C2CCCN(S(=O)(=O)c3ccc4c(c3)CCCN4C(C)=O)C2)cc1` (stereo unspecified), for which the cell number change is -22.6%. The AC50 under setting [2] is 1.16 µM [falling, partial curve, poor fit]. In the case of `CCOC(=O)c1c2n(c3ccc(OC(C)=O)cc13)CCC2`, the cell number change came to 9.11%. Further, the AC50 under setting [1] is 0.82 µM [rising, full curve, poor fit]. Turning to `COC(=O)c1ccc(CSCc2ccc(C(=O)OC)o2)o1`, the cell number change came out at 71.2%. For the same compound, the AC50 under setting [1] was 6.51 µM [rising, full curve, poor fit]. In addition, the AC50 under setting [2] is 29.1 µM [rising, single point]. With `Cc1ccc(NC(N)=S)cc1`, the cell number change came to 44.6%. Besides, the AC50 under setting [1] is 29.1 µM [rising, single point]. Further, the AC50 under setting [2] was 29.1 µM [rising, single point]. On to `COc1ccc(-c2noc(-c3ccc(C)cc3)n2)cc1`, for which the cell number change came to 31.7%. Moreover, the AC50 under setting [1] was 2.91 µM [rising, full curve, poor fit]. Besides, the AC50 under setting [2] is 11.6 µM [rising, partial curve]. With `O=C(COC(=O)c1sc2ccccc2c1Cl)Nc1ncc(Cl)cc1Cl`, the cell number change is -8.04%. Turning to `O=C(COC(=O)/C=C/c1ccc(Cl)cc1)NCCc1ccccc1`, the cell number change was -6.11%. Under setting [2], the AC50 is 29.1 µM [falling, partial curve, poor fit]. Turning to `Cc1ccc(-n2nc3c(=O)n(CCCC(=O)N4CCC(C(N)=O)CC4)nc(C)c3c2C)cc1`, the cell number change was determined as 1.48%. Also, the AC50 under setting [2] is 18.4 µM [rising, partial curve]. In the case of `Cn1c(SCc2ccccc2)nnc1-c1ccc(O)cc1`, the cell number change was -12.6%. Also, the AC50 under setting [2] was 0.58 µM [falling, single point].

Consider `O=C1C(Nc2ccccc2)=C(NS(=O)(=O)c2ccccc2)C(=O)c2ccccc21`, for which the cell number change is -23.2%. For the same compound, under setting [1], the AC50 was 2.06 µM [rising, partial curve]. The AC50 under setting [2] was 2.06 µM [rising, partial curve]. For `CC1(C)CC(=NOC(=O)c2ccccc2)CC(C)(C)N1`, the cell number change is -0.259%. Moreover, under setting [1], the AC50 was 6.51 µM [falling, single point]. For the same compound, the AC50 under setting [2] was 6.51 µM [falling, single point]. As for `CCOc1ccc(NC(=O)CN(C)C(=O)Cc2n[nH]c(=O)c3ccccc23)cc1OCC`, the cell number change is -29.5%. Besides, under setting [2], the AC50 is 29.1 µM [falling, single point].

Turning to `CCOC(=O)c1cccc(NC(=O)CCS(=O)(=O)c2cccc3nsnc23)c1`, the cell number change came out at 12.6%. Further, the AC50 under setting [2] was 4.11 µM [rising, partial curve].

For `COc1ccc(C(C(=O)NCc2ccc(F)cc2)N(Cc2cccnc2)C(=O)c2snc(C(N)=O)c2N)cc1` (stereo unspecified), the cell number change is 34.6%. Also, the AC50 under setting [2] was 0.517 µM [rising, partial curve]. As to `O=C(c1cccc(OC2CCN(Cc3cccc(OCCO)c3)CC2)c1)N1CCCC1`, the cell number change was 25.5%. The AC50 under setting [2] was 16.4 µM [rising, single point].

As to `CCN(CC(=O)Nc1ccc(OC)cc1)C(=O)Cc1coc2cc(C)c(C)cc12`, the cell number change was 2.02%. The AC50 under setting [2] was 29.1 µM [falling, partial curve, poor fit]. Regarding `COc1cc(NC(=O)CCN2CCN(C/C=C/c3ccccc3)CC2)cc(OC)c1`, the cell number change was -18.8%. In the case of `Cc1cc(-c2n[nH]c(=S)n2-c2ccccc2C)cs1`, the cell number change was found to be 3.06%. The AC50 under setting [2] is 2.59 µM [rising, partial curve]. With `CCC(=O)N1CCN(c2cc(C)ccc2C)CC1`, the cell number change was 33.1%. In addition, the AC50 under setting [1] is 18.4 µM [rising, single point]. Turning to `COc1cccc([C@@H]2CC=C(C(=O)O)[C@H](c3ccc(Cl)cc3)N2S(=O)(=O)c2ccc(C)cc2)c1`, the cell number change is 1.39%. The AC50 under setting [2] is 0.206 µM [rising, partial curve, poor fit]. Regarding `O=C(CSc1nc2ccccc2o1)N1CCN(S(=O)(=O)c2ccc3ccccc3c2)CC1`, the cell number change was -17.6%.

With `CCN(c1ccccc1)S(=O)(=O)c1ccc(Cl)c(C(=O)N2CCCC2)c1`, the cell number change is -12.7%. For the same compound, under setting [2], the AC50 is 18.4 µM [falling, single point]. With `Cc1ccccc1-n1nc2c(c1NC(=O)c1c(-c3ccccc3Cl)noc1C)CS(=O)(=O)C2`, the AC50 under setting [2] was 0.58 µM [falling, single point]. `CC/C(=N\Nc1ccccc1[N+](=O)[O-])c1ccc(O)cc1`: the cell number change is -56.7%. For the same compound, the AC50 under setting [1] was 25.9 µM [falling, partial curve]. Besides, the AC50 under setting [2] is 23.1 µM [falling, partial curve].

Regarding `O=C(NC1CCN(c2ncccn2)CC1)c1cccc(F)c1`, the cell number change worked out at 37.3%. Moreover, the AC50 under setting [1] was 29.1 µM [rising, single point]. Regarding `NC(=O)Cn1nnc(-c2ccccc2NC(=O)c2cnccn2)n1`, the cell number change worked out at 49.7%. Under setting [1], the AC50 is 0.58 µM [rising, full curve]. Moreover, the AC50 under setting [2] is 0.58 µM [rising, full curve]. For the compound `COc1cc(NC(=O)CSc2nc3[nH]ncc3c(=O)n2-c2ccc(Cl)cc2)cc(OC)c1`, the cell number change amounted to 6.42%. In the case of `CCSc1nnc(-c2cccc(S(=O)(=O)N(C)C)c2)n1-c1cc(OC)ccc1OC`, the cell number change is -2.69%. In addition, the AC50 under setting [2] is 18.4 µM [rising, partial curve]. As for `O=C(NCCC(=O)N1CCc2ccccc21)c1ccco1`, the cell number change came out at 2.78%. For the same compound, the AC50 under setting [1] was 0.092 µM [rising, full curve, poor fit]. For the compound `O=C(c1ccc(S(=O)(=O)N2CCOCC2)cc1)N1CCN(c2cccc(Cl)c2)CC1`, the cell number change is -40.3%. The AC50 under setting [1] was 23.1 µM [falling, partial curve, poor fit]. As to `O=c1oc(-c2ccco2)nc2ccccc12`, the cell number change is -33.1%. Besides, the AC50 under setting [1] is 16.4 µM [falling, partial curve, poor fit]. Besides, the AC50 under setting [2] is 32.6 µM [falling, single point].

As to `COc1ccc(-c2cc3c(=O)n(CC(=O)NCCCN4CCN(Cc5ccccc5)CC4)ncn3n2)cc1`, the cell number change was 49.5%. In addition, the AC50 under setting [1] is 16.4 µM [rising, single point].

Turning to `Cc1nnc(NC(=O)CCS(=O)(=O)Cc2ccccc2)s1`, the cell number change worked out at 17%. Consider `CC#CC[N+](C)(CC#CC)CC(=O)c1ccccc1`, for which the cell number change was -11.3%. The same measure, in the same setting: the value for `O=C(NC1CCCC1)C(Cc1ccccc1)n1cccc1` (stereo unspecified) was -8.46%. As to `COc1cc(C=O)ccc1OCCOc1ccccc1[N+](=O)[O-]`, the cell number change amounted to 9.81%. Under setting [2], the AC50 is 10.3 µM [rising, partial curve]. Take `CCOc1ccc(C(=O)NCC(=O)OCC(=O)N2CCC(C)CC2)cc1`: the cell number change worked out at 1.26%. Under setting [1], the AC50 is 0.00731 µM [falling, full curve, poor fit]. In addition, the AC50 under setting [2] was 20.6 µM [falling, partial curve]. On to `Cc1ccc(C)c(N2C(=N)S/C(=C\c3ccc(-c4ccccc4C(=O)O)o3)C2=O)c1`, for which the cell number change turned out to be 30.7%. With `COc1ccc(OCCNC(=O)C(Cc2c[nH]c3ccccc23)NC(C)=O)cc1` (stereo unspecified), under setting [2], the half-maximal activity concentration (AC50) is 6.51 µM [rising, single point]. Same read-out and setting: as for `Cc1ccc(NC(=O)O/N=C/c2ccc(Br)cc2)cc1`, the figure is 14.6 µM [rising, partial curve]. Consider `CC1=CC(=C(C#N)C#N)c2ccccc2N1C`, for which the cell number change came to 14.2%.

With `Cc1cc2c(cc1C)C(c1ccsc1)CC(=O)N2` (stereo unspecified), the cell number change is -33.3%. Besides, under setting [2], the AC50 is 32.6 µM [falling, single point]. Consider `Oc1ccc(Br)cc1-c1ccnn1-c1ccccc1`, for which the cell number change was -25.4%. In the case of `Cc1cccc(NC(=O)Cn2nnc(-c3cccs3)n2)c1C`, the cell number change was -14.9%. The AC50 under setting [2] is 2.91 µM [rising, single point]. As to `COc1ccc(C2C(C(=O)Nc3cccnc3)=C(C)Nc3nc(-c4ccco4)nn32)cc1` (stereo unspecified), the cell number change is -7.54%. For the same compound, the AC50 under setting [2] is 6.51 µM [falling, full curve, poor fit]. As for `COc1cccc(/C=C/C(=O)c2ccc(NS(=O)(=O)c3ccc(C)cc3)cc2)c1`, the cell number change stood at 1.06%. Under setting [1], the AC50 was 0.651 µM [falling, single point]. In addition, under setting [2], the AC50 was 0.184 µM [falling, full curve]. For the compound `COc1cccc(C(=O)Nc2ccc(NC(=O)C3CCCCC3)nc2)c1`, the cell number change is -2.02%. The AC50 under setting [2] was 3.26 µM [falling, single point]. Consider `Cc1cccc(C2CC3(CC(C)(C)NC(=S)N3)Oc3cc(O)ccc32)c1` (stereo unspecified), for which the cell number change was -19.9%. For the same compound, the AC50 under setting [2] is 0.731 µM [falling, single point]. With `CCn1c(SCC(=O)N/N=C(\C)c2ccncc2)nnc1-c1ccccc1`, the cell number change came out at 31.4%. Also, the AC50 under setting [2] was 0.00411 µM [rising, full curve, poor fit]. For `CC(C)(C)NC(=O)C(c1ccc(F)cc1)N(C(=O)CCC(=O)Nc1ccccn1)C1CCCC1` (stereo unspecified), the cell number change was found to be 17.9%. `O=C(NCCN1CCOCC1)c1cccc(NS(=O)(=O)c2ccc(Br)cc2)c1`: under setting [2], the AC50 is 6.51 µM [rising, single point]. As to `O=C(CCc1ccccc1)N=C1SC2CS(=O)(=O)CC2N1Cc1ccccc1` (stereo unspecified), the cell number change was determined as 8.9%. As to `COc1cc(C(=O)OC2CCOC2=O)c([N+](=O)[O-])cc1OC` (stereo unspecified), the cell number change is 2.1%. Besides, the AC50 under setting [2] was 20.6 µM [falling, single point].
